PubChem BioAssay AID493246 | Drosophila RNAi Screening Center | 2011

- Screen: 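Identify essential fly genes by loss of cell viability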 (primary screen)
- System: Drosophila Kc and S2R+ cells
- Reagent: long dsRNA against Drosophila genes
- Read-out: 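Cell number per well after knock-down, printed as raw plate values; calls were based on per-plate z-scores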
- Direction: Kc cell number and S2R+ cell number: higher = more cells remaining
- Hit rule: 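Active when the per-plate z-score of cell number is 3 or more in the direction of fewer cells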
The screen tested about 21,000 reagents; this is an unselected part of those with a known target gene and a result. Over the whole deposit, 429 (2%) were called active. 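Values are raw and not normalised between plates; calls rest on per-plate z-scores that were not deposited.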 Unmarked entries are inactive. Names joined by + are all predicted targets of the reagent. Reagent sequences are not shown. The record does not give: the amount of reagent, the time to read-out.

The first 3 entries, ahead of the listing:
no.	gene knocked down	amplicon	Kc cell number, rep 1	Kc cell number, rep 2	S2R+ cell number, rep 1	S2R+ cell number, rep 2
1	CG18171	DRSC08524	1.23e6	1.33e6	1.08e6	1.31e6
2	IntS3	DRSC21215	1.33e6	1.42e6	9.35e5	1.02e6
3	CG13877 + pyx	DRSC08347	1.43e6	1.19e6	9.87e5	1.24e6

Main list, from the first entry:
no.	gene knocked down	amplicon	Kc cell number, rep 1	Kc cell number, rep 2	S2R+ cell number, rep 1	S2R+ cell number, rep 2
1	CG18171	DRSC08524	1.23e6	1.33e6	1.08e6	1.31e6
2	IntS3	DRSC21215	1.33e6	1.42e6	9.35e5	1.02e6
3	CG13877 + pyx	DRSC08347	1.43e6	1.19e6	9.87e5	1.24e6
4	fng	DRSC11455	1.32e6	1.25e6	1.01e6	1.19e6
5	fng	DRSC11887	1.54e6	1.58e6	1.36e6	1.39e6
6	pod1	DRSC18362	5.77e5		9.09e5	
7	CG17928	DRSC02644	1.58e6	1.80e6	1.17e6	1.26e6
8	CG15529	DRSC15066	1.48e6	1.54e6	1.13e6	1.19e6
9	Aduk	DRSC16451	1.81e6	1.68e6	1.33e6	1.43e6
10	CG2991	DRSC00559	1.26e6	1.28e6	8.41e5	9.16e5
11	Der-2	DRSC15021	1.53e6	1.59e6	9.85e5	1.10e6
12	CG17652	DRSC00511	1.64e6	1.61e6	1.09e6	1.24e6
13	Ice2	DRSC14268	1.83e6	1.87e6	1.49e6	1.49e6
14	RpS10b	DRSC19561	1.23e6	1.23e6	8.65e5	9.74e5
15	ppk29	DRSC04205	1.57e6	1.62e6	1.34e6	1.44e6
16	Hsp67Ba	DRSC11191	1.60e6	1.60e6	1.17e6	1.32e6
17	CG30058 + CG34235 + CG34312	DRSC05401	1.57e6	1.52e6	1.08e6	1.23e6
18	CG4887	DRSC00670	1.68e6	1.70e6	1.10e6	1.23e6
19	CR31958	DRSC00282	1.63e6	1.58e6	1.20e6	1.39e6
20	CG11052	DRSC14288	1.57e6	1.94e6	1.26e6	1.39e6
21	CG32459	DRSC11852	1.43e6	1.53e6	1.28e6	1.34e6
22	caup	DRSC11334	1.51e6	1.48e6	8.61e5	9.85e5
23	Dpy-30L2	DRSC08205	1.19e6	1.36e6	1.08e6	1.21e6
24	CG18088	DRSC02654	1.49e6	1.54e6	1.18e6	1.36e6
